Assay results taken from PMC12040169 (PLOS Biology, 2025).
This is one part of the list.

Each molecule was assayed on T1, CTL2-GFP (C. trachomatis L2/434/Bu, GFP-expressing). Details: bulk GFP, single well; 28.5 h, 10 µM; inhibitor.
T1 construct: L2/434/Bu, GFP-expressing
Design: species or system HeLa; Intracellular C. trachomatis growth in HeLa cells, bulk GFP fluorescence relative to DMSO

In order of falling “% of control remaining” value:
1. Cc1cc2oc(C(=O)Nc3sc4c(c3C(=O)NC3CCS(=O)(=O)C3)CCC(C)C4)c(C)c2cc1C (stereo not shown) [CBK266351]  222.37%
2. NC(=O)c1ccc(-c2cnc3[nH]c(=O)n(CCCN4CCOCC4)c3n2)cc1 [CBK065092]  184.62%
3. Cc1cc2c(s1)c1cnn(Cc3ccccn3)c(=O)c1n2C [CBK284227]  183.569%
4. O=C(CC1NC(=O)NC1=O)Nc1cccc2ccccc12 (stereo not shown) [CBK267164]  172.742%
5. COc1ccc(CNc2cncc(-c3cncc(OC)c3)n2)cc1 [CBK065388]  163.447%
6. Cc1nn2c(C)c(C(=O)Nc3ccccc3)nnc2c1-c1ccccc1 [CBK270198]  161.162%
7. Cc1ccc(-n2ncc3c(Nc4c(C)n(C)n(-c5ccccc5)c4=O)ncnc32)c(C)c1 [CBK294449]  160.453%
8. CN(C)c1ccc(-c2nc(C(F)(F)F)nn2C)cn1 [CBK307202]  157.321%
9. Cc1c(-c2ccc(N(C)C)nc2)c(C(F)(F)F)nn1C [CBK307320]  153.65%
10. Cc1[nH]c2ccccc2c1C(=O)CSc1nc2ccccc2o1 [CBK266339]  144.106%
11. Nc1nc(CSc2nnc(Cc3ccc([N+](=O)[O-])cc3)n2-c2ccccc2)cs1 [CBK267408]  140.784%
12. C[C@H](Nc1cncc(-c2cccc3ccccc23)n1)c1ccccc1 [CBK065654]  139.879%
13. O=C(Nc1nc2ccccc2[nH]1)c1cccc(N2CCCS2(=O)=O)c1 [CBK304584]  137.434%
14. Nc1ncc(-c2cccc(-c3ccccc3)c2)nc1N1CCN(CCO)CC1 [CBK063410]  136.843%
15. COc1cc(-c2cnc(N)c(N3CCN(CCN(C)C)CC3)n2)cc(OC)c1OC [CBK063488]  133.333%
16. Cc1ccc([N+](=O)[O-])cc1S(=O)(=O)n1ccc2c(N3CCNCC3)nccc21 [CBK059068C]  132.706%
17. NNC(=O)CN(CCc1ccccc1)S(=O)(=O)c1ccc(Cl)cc1 [CBK263754]  130.775%
18. Cc1nnc(SCC(=O)Nc2cc(C(F)(F)F)ccc2N2CCOCC2)o1 [CBK266815]  129.66%
19. Cc1nn(C)cc1C(=O)N1CCCC1c1nc2ccccc2[nH]1 (stereo not shown) [CBK282371]  128.492%
20. COc1ccc(S(=O)(=O)N2Cc3ccccc3CC2C(=O)Nc2ccc(O)cc2)cc1OC (stereo not shown) [CBK293967]  126.976%
21. c1cnn(CC2CCCN2c2ncnc3sc4c(c23)CCNC4)c1 (stereo not shown) [CBK307490]  126.639%
22. CC(C)C[C@H](NC(=O)COc1ccc2nc3n(c(=O)c2c1)CCCCC3)C(=O)O [CBK286656]  125.392%
23. O=C(O)c1nccnc1C(=O)N1CCN(c2ccc(Cl)cc2)CC1 [CBK286826]  124.334%
24. COc1ccc(C(NC(=O)CCc2ccccc2)c2ccc3cccnc3c2O)cc1 (stereo not shown) [CBK293942]  124.032%
25. Cc1cc(NCc2ccccc2)nc2[nH]nc(N)c12 [CBK287931]  123.503%
26. COC(=O)c1c(NC(=O)CSc2nnc3ccccn23)sc(C)c1C [CBK265943]  123.338%
27. COc1ccc(C(NC(=O)c2ccc(Cn3nc(C)cc3C)o2)c2ccccc2)cc1 (stereo not shown) [CBK285578]  123.317%
28. CCCCC1C(=O)N(C)CCN1C(=O)c1cc(C)c(CC)n(C)c1=O (stereo not shown) [CBK306527]  120.479%
29. Cc1n[nH]c(=O)c2nc(-c3ccc(=O)[nH]n3)[nH]c12 [CBK008745]  118.322%
30. Cc1nc(-c2ccccc2)sc1CNC(=O)CCC(F)(F)F [CBK092365]  116.722%
31. Cc1ccc(CNC(=O)CCC(=O)O)cc1 [CBK058951]  111.466%
32. Cc1nc(CN2CCN(c3cccc(C(F)(F)F)n3)CC2)cs1 [CBK304709]  110.873%
33. COc1ccc(-c2cc(C(=O)Nc3ccc(OC(F)(F)F)cc3)cnc2-c2ccccc2)cn1 [CBK036621]  109.459%
34. O=C(O)C[S+]([O-])c1ccccc1C(=O)O (stereo not shown) [CBK263244]  109.223%
35. CN(Cc1nc(-c2ccncc2)no1)S(=O)(=O)c1ccc(Br)cc1 [CBK268598]  108.223%
36. COC(=O)c1cc(S(=O)(=O)N2c3ccccc3CC2C)cn1C (stereo not shown) [CBK304384]  108.072%
37. Cc1cc(NS(=O)(=O)c2ccc(NC(=O)C(c3ccccc3)c3ccccc3)cc2)no1 [CBK085112]  104.634%
38. CC1=C[C@@H](CO)[C@H](C(C)C)C[C@H]1Cc1nnc(-c2ccncc2)o1 [CBK289222]  104.146%
39. Cc1cc(C(=O)N2CCC(C(=O)NC(c3ccccc3)c3ccc4ccccc4n3)CC2)no1 (stereo not shown) [CBK059641]  103.136%
40. Cc1ccc(S(=O)(=O)NCC(=O)Nc2ccc(Cl)cn2)cc1 [CBK091357]  98.2716%
41. COc1cccc(CN2C(=O)CC3(C2=O)C(=O)N(Cc2ccc4ccccc4n2)c2ccccc23)c1 (stereo not shown) [CBK076016]  98.0451%
42. COc1ccc(OCC(=O)Nc2ccc(CN3CCOCC3)cc2)cc1 [CBK269686]  97.7786%
43. O=c1[nH]c2ncc(-c3ccsc3)nc2n1CCCO [CBK065044]  93.2496%
44. Cc1nn(C)c(C)c1CN(C)C(=O)CCC(C)N1CCCC1 (stereo not shown) [CBK282001]  92.5926%
45. Cn1ccnc1C1(O)CCN(C(=O)c2ccccc2F)CC1 [CBK283536]  79.8051%
46. CC(=O)NC(CC(=O)N1CCc2sccc2C1c1ccccc1)c1ccc(F)cc1 (stereo not shown) [CBK285548]  75.8187%
47. Cc1noc(-c2ccccc2)c1CN1CCCN(S(=O)(=O)c2ccc(C(F)(F)F)cc2Cl)CC1 [CBK063104]  73.1801%
48. C/C(=N/NC(N)=S)c1ccccc1OCC(=O)O [CBK007123]  66.8667%
49. CCNC(=O)N1CC2(CCN(Cc3nc4ccccc4[nH]3)CC2)c2ccccc21 [CBK126693]  48.6187%
